Cell count data for 22 molecules are collected here from PubChem BioAssay AID463183 (Sanford-Burnham Center for Chemical Genomics, 2010).

The list shows a part of the results. The main result of the screen is listed elsewhere. These columns were measured beside it and carry no call. Compounds called inactive in the main read-out are mostly missing here.

The experiment in a line: hepatocyte lipid droplet accumulation inhibitors, confirmation, imaging, AML12 mouse hepatocytes, single concentration, high-content (AID 463183).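 Also: cells counted after overnight compound exposure.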 The note with it: BODIPY lipid droplet imaging, measured here: cell count, cytotoxicity, at 5.2 µM, droplets induced with 100 µM oleic acid.
Turning to `CCOc1ccccc1NC(=O)CCC(=O)Nc1ccccc1OCC`, the cell count was 1630 cells.

Molecule `CCc1ccccc1NC(=O)COc1ccc(C(=S)N2CCCC2)cc1` yielded a cell count of 1550 cells.

`COc1ccc(C)cc1NC(=O)Nc1ccc(C(=O)N2CCCC2)cc1` returned a cell count of 1570 cells.

The molecule `C=C(C)Cn1c(N2CCC(Cc3ccccc3)CC2)nc2c1c(=O)[nH]c(=O)n2C` came in with a cell count of 1640 cells.

`COc1ccc(-c2nc3c(c4nnc(SC(C)C(=O)Nc5ccc(C)cc5)n24)COC(C)(C)C3)cc1` (configuration not stated) displayed a cell count of 1640 cells.

`COc1ccc(N=C2C(=Nc3ccc(OC)cc3)N(c3ccc(N(C)C)cc3)C(=S)N2c2ccc(OC)cc2)cc1` returned a cell count of 1680 cells.

`CCCCCCCCn1c(N2CCN(c3cccc(Cl)c3)CC2)nc2c1c(=O)[nH]c(=O)n2C` registered a cell count of 1660 cells.

For `Cc1cccc(Nc2nc(N)c([N+](=O)[O-])c(N3CCCC(C)C3)n2)c1` (configuration not stated), the cell count amounted to 1700 cells.

`CCC1=NN=C(c2ccc(F)cc2)C(c2c[nH]c3ccccc23)N1O` (configuration not stated) gave a cell count of 1640 cells.

With `O=C(N/N=C/c1cn(-c2ccccc2)nc1-c1cc2ccccc2o1)c1ccccc1Br`, the cell count stood at 1670 cells.

In turn, `CCOC(=O)[C@@H]1[C@H]2COc3ccc(Br)cc3[C@@H]2N2C(=O)N(c3ccc(C(F)(F)F)cc3)C(=O)[C@@]12C` yielded a cell count of 1630 cells.

`CCSC(=O)N(CC)CC(=O)Nc1c(CC)cccc1CC` came in with a cell count of 1670 cells.

`CS(=O)(=O)N(CC(=O)Nc1ccc2c(c1)OCO2)Cc1ccccc1` returned a cell count of 1620 cells.

`COCCNC(=S)N1CCc2cc(OC)c(OC)cc2C1COc1cc(C)cc(C)c1` (configuration not stated) yielded a cell count of 1590 cells.

Turning to `C/C(=N\N=C(/N)c1nonc1N)c1ccc2c(c1)OCO2`, the cell count turned out to be 1580 cells.

As to `CCOc1ccc(CCNC(=O)C2CC=CCC2C(=O)OC(C)C)cc1OCC` (configuration not stated), the cell count was found to be 1440 cells.

Turning to `CCOc1ccc(CCNC(=O)CCS(=O)(=O)c2ccc(Br)cc2)cc1OCC`, the cell count was 1520 cells.

The molecule `COc1ccccc1Nc1ccc(NC(=O)c2cccc([N+](=O)[O-])c2C)cc1` returned a cell count of 1560 cells.

In turn, `O=S1(=O)N=C(Oc2cccc3ccccc23)c2ccccc21` showed a cell count of 1580 cells.

The molecule `O=C(Nc1cccc(S(=O)(=O)N2CCOCC2)c1)c1ccc(Cl)c([N+](=O)[O-])c1` registered a cell count of 1610 cells.

Turning to `CCN(CC)S(=O)(=O)c1ccc(N2C(=O)CC2(/C=C/c2ccccc2)C(=O)NC2CCCC2)cc1` (configuration not stated), the cell count was found to be 1560 cells.

Turning to `COc1cccc(/C(C)=N/NC(=O)Cc2c(C)[nH][nH]c2=O)c1`, the cell count came out at 1560 cells.
